Some results were stated once for a whole list of compounds, not compound by compound.
System: TSHR
Assay: Binding of 125I-CGH and 125I-TSH to BHK cells expressing the TSHR
Set-up: species or system murine or human
Details: 4° C.
Protocol: BHK cells expressing murine or human TSHRs were cultured in Dulbecco's Modified Eagle's Medium [DMEM (high glucose)] containing 5% fetal bovine serum, 1% Glutamax, 1% sodium pyruvate, 250 nM methotrexate, and Geneticin ( 1/100). […] Plates of cells were placed on ice and washed twice with 1.0-2.0 ml of ice-cold PBS. […] Specific binding was determined in the presence (nonspecific binding) and absence (total binding) of unlabeled rhCGH (25.0 μg/ml) or TSH (10 μg/ml). Binding reactions were terminated by removing the binding medium and the cell monolayers were washed three times with 1.0-2.0 ml of ice-cold PBS containing 1.0 mg/ml BSA and twice with 1.0-2.0 ml of ice cold albumin-free PBS. Cells were solubilized in 1.0 ml of 1.0N NaOH for 10 min at room temperature and cell-associated radioactivity was determined in a gamma counter. The measured radioactivity was normalized to cell number that was determined on plates of cells cultured in parallel. Binding data were analyzed by non-linear regression using Prizm 3.0 (GraphPad Software, San Diego, Calif.).

B1: ^125I-CGH: rhCGH radiolabeled with 125I-Bolton Hunter Reagent (protein)
chain 1: QEAVIPGCHLHPFNVTVRSDRQGTCQGSHVAQACVGHCESSAFPSRYSVLVASGYRHNITSVSQCCTISGLKKVKVQLQCVGSRREELEIFTARACQCDMCRLSRY
chain 2: ASSGNLRTFVGCAVREFTFLAKKPGCRGLRITTDACWGRCETWEKPILEPPYIEAHHRVCTYNETKQVTVKLPNCAPGVDPFYTYPVAIRCDCGACSTATTECETI
With B1 the “time to apparent steady state of binding” value was ≤ 2 h.

Reference: patent US20070014736A1, “Methods of delivering corticotroph-derived glycoprotein hormone” (priority 2005, published 2007)
